Here are results for one molecule from patent publication US20070016978A1, “PLANTS HAVING AN ENHANCED RESISTANCE TO NECROTROPHIC PATHOGENS AND METHOD OF MAKING SAME” (priority 2005, published 2007).

The amount applied is not stated for every result.

This data set can be described thus: Lipid profile and total lipid content after glycerol application. In kind it is in vivo, Arabidopsis.

In the case of `OCC(O)CO` [glycerol], the PA levels result (glycerol-treated wt plants) is given as “marginal reduction in PA levels”. Further, the total lipids (wt plants upon glycerol application) was 164 nmoles of lipids per mg dry weight. Further, the “levels of leaf MGDG and DGDG” value (wt plants, glycerol application) is “decline in the levels of leaf MGDG and DGDG”.
